Measurements from the supplement of paper PMC10849652.
The list shows a part of the results.

Sequences of proteins named here, by UniProt entry; tags and fusion partners are left off. A change or cut given only in a name is not applied to a line headed by its entry.
UniProt P23511, whole entry, looked up: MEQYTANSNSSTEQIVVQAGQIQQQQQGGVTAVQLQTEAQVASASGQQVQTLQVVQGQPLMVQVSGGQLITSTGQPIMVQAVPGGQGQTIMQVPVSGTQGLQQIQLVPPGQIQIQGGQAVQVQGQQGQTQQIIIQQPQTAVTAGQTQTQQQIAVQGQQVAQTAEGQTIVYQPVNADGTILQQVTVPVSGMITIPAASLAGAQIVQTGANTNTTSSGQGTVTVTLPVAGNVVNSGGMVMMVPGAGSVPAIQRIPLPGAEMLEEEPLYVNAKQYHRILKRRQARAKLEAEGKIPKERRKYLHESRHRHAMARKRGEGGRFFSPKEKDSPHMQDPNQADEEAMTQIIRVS
UniProt Q15843, whole entry, looked up: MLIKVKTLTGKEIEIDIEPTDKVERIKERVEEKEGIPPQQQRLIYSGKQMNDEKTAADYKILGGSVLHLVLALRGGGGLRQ
UniProt Q8NCF5: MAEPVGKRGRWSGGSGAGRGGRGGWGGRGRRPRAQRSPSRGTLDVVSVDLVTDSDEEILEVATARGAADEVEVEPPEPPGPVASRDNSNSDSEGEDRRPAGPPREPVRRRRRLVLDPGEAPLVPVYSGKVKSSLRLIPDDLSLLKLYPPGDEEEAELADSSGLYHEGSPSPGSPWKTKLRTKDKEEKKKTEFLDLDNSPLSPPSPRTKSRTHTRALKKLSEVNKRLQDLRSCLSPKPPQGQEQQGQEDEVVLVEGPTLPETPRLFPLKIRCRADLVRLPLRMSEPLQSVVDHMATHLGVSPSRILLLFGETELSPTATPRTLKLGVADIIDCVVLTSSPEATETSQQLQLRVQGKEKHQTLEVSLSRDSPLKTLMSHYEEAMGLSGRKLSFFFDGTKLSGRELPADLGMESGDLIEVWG
UniProt Q9UGV2: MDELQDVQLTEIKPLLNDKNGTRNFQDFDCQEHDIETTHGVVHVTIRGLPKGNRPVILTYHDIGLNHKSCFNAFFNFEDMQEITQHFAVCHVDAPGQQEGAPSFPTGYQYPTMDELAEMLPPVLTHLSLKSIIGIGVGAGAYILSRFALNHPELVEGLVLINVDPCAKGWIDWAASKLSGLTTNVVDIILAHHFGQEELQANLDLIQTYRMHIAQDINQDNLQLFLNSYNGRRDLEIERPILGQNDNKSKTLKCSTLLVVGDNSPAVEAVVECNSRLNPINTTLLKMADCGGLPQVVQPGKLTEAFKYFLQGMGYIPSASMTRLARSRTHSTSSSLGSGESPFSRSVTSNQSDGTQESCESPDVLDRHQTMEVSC
UniProt Q12968: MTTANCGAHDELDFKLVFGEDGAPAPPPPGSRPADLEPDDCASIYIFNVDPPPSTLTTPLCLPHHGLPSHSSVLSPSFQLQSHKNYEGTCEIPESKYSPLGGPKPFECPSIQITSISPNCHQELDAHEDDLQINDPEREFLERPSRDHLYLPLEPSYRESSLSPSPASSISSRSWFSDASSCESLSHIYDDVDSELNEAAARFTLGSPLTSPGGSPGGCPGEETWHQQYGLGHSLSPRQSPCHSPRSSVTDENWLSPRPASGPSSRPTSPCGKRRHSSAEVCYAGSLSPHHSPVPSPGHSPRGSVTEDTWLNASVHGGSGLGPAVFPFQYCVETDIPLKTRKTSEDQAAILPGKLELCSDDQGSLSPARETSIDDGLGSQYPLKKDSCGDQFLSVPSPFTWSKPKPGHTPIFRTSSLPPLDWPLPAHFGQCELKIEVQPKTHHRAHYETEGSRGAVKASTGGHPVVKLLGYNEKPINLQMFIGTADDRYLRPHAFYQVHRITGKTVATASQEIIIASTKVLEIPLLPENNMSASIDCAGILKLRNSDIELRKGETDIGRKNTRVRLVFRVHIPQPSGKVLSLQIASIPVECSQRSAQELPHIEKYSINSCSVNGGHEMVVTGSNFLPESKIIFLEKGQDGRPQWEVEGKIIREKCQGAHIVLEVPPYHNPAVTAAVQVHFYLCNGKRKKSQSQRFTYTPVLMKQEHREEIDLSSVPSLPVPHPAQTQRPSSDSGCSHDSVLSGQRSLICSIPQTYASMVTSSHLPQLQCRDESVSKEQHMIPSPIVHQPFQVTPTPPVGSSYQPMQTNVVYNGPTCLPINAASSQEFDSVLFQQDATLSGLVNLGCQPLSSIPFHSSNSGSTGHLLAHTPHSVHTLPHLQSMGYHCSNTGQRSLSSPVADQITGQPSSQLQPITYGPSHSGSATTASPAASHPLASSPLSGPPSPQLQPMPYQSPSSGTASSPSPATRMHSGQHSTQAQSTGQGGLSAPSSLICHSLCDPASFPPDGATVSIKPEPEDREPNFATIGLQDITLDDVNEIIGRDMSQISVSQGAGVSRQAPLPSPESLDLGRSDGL
UniProt Q00653: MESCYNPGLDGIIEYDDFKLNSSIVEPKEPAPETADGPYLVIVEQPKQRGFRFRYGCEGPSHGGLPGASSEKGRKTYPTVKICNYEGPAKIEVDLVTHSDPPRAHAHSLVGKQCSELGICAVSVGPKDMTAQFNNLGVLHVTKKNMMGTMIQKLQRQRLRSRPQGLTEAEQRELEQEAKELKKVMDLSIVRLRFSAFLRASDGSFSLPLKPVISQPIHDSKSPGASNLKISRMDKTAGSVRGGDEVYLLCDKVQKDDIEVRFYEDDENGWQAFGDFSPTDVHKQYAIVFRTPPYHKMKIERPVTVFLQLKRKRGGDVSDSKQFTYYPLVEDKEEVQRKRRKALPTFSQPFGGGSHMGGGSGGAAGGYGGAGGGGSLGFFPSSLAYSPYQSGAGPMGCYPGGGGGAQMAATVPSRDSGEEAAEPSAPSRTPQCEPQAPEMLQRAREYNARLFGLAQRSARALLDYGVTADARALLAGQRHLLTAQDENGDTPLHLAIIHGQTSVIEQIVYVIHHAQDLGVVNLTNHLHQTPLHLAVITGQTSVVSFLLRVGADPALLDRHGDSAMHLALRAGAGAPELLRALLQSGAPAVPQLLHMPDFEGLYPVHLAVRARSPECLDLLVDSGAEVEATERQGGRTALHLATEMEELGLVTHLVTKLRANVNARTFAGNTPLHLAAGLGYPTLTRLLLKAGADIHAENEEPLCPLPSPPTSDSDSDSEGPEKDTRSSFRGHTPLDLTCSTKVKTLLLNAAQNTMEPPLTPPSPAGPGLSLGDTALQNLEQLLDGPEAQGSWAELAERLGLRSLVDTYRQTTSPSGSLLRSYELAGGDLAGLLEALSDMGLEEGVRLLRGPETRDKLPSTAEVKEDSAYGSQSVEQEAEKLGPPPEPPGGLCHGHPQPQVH
UniProt O75251, whole entry, looked up: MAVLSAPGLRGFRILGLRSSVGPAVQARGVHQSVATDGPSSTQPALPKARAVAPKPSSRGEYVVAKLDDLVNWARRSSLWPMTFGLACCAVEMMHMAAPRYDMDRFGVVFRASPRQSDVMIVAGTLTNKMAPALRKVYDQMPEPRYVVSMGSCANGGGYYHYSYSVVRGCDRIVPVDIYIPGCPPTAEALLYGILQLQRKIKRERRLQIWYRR
UniProt O43181, whole entry, looked up: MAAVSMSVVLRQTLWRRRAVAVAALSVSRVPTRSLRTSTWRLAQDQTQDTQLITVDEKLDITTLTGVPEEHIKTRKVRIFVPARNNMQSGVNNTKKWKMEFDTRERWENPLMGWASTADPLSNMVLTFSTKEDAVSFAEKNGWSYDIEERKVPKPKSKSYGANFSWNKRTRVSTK
UniProt O00483, whole entry, looked up: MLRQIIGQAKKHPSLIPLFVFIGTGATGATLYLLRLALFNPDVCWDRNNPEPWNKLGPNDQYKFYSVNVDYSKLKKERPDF
UniProt Q9UMX5: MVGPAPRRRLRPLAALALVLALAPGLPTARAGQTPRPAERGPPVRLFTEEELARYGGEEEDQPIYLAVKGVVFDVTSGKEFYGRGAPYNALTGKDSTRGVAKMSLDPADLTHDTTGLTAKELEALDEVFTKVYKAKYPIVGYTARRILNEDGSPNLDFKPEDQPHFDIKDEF
UniProt Q9NYR9: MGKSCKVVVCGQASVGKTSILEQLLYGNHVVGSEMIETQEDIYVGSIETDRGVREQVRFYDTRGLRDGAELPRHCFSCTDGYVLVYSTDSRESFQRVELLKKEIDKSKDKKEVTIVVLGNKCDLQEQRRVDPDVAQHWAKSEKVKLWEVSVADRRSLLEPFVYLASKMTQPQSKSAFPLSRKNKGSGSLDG
UniProt Q15653: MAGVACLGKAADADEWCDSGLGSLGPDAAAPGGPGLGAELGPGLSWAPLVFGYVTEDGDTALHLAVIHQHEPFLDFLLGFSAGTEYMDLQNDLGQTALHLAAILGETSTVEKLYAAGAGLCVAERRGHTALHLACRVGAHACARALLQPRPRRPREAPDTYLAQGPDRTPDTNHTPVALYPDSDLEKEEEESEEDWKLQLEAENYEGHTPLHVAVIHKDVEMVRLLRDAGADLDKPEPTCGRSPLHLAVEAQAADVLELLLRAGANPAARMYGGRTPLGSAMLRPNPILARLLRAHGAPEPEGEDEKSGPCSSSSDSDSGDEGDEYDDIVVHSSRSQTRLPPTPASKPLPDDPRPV
UniProt Q9NX02: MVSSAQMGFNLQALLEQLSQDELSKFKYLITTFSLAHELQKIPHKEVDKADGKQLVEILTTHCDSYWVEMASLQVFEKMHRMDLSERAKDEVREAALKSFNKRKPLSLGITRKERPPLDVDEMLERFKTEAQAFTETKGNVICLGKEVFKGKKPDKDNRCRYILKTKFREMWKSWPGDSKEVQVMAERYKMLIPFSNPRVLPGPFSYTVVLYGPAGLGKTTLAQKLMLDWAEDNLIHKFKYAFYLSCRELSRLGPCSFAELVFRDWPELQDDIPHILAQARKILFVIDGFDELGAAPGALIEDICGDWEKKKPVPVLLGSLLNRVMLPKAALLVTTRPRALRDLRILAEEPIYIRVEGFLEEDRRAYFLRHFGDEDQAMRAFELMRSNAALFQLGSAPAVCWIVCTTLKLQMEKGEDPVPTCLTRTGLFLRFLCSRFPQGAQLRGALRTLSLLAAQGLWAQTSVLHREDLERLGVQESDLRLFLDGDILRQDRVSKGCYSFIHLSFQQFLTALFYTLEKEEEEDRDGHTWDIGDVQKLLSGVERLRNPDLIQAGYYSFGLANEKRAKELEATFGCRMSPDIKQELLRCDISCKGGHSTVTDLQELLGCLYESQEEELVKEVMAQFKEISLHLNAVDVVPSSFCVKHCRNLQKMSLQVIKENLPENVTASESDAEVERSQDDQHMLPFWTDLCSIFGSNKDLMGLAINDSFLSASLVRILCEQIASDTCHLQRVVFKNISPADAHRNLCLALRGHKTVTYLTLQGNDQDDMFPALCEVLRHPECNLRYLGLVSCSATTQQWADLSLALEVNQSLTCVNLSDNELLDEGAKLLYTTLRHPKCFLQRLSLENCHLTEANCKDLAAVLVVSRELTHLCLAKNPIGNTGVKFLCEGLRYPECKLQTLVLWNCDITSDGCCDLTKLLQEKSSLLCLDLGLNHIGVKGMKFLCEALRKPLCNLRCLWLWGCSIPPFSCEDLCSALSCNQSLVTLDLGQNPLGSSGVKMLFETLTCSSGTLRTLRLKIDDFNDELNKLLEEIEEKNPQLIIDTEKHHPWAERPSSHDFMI
UniProt O75323: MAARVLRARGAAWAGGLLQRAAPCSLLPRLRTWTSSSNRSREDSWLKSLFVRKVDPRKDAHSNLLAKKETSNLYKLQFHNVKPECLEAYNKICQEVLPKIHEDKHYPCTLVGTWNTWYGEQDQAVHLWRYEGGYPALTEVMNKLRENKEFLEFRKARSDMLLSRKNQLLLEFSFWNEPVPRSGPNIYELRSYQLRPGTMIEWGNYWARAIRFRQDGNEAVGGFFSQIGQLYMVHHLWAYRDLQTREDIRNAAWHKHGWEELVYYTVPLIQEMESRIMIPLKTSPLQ
UniProt Q9BS92: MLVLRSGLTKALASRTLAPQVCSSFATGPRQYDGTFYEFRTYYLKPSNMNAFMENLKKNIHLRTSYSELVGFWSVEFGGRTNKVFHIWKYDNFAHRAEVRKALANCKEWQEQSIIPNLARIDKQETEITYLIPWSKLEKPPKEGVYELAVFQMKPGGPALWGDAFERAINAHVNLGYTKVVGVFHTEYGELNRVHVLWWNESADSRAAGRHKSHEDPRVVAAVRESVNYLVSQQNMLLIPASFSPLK
UniProt O43678, whole entry, looked up: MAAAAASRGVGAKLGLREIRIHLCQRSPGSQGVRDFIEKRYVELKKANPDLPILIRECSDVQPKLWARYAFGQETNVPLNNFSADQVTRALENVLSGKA
UniProt Q92597: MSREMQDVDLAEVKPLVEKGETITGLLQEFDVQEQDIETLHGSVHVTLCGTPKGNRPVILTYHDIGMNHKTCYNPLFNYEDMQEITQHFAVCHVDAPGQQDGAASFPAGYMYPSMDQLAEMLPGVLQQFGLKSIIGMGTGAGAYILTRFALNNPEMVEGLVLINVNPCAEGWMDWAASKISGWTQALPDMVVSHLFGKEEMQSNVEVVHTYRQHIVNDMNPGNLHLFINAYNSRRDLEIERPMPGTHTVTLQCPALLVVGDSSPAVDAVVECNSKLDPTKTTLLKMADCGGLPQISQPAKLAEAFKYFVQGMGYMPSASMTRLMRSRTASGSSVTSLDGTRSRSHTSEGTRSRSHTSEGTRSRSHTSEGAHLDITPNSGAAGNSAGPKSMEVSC

How the values were obtained:
Test in all cases: log2 fold change, soluble protein after heating vs DMSO (PISA); higher = thermal stabilisation; K562 lysate, 10 uM; active = over 0.2 and 3.5 SD of the protein, either way, in both replicates (recomputed)
vemurafenib = compound: CCCS(=O)(=O)Nc1ccc(F)c(C(=O)c2c[nH]c3ncc(-c4ccc(Cl)cc4)cc23)c1F [vemurafenib]
Outline: (§1)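 Pellets of K562 cells were dounce-homogenised in PBS pH 7.4 with 1 mM MgCl2, and the crude extract was held at 1 mg/mL protein for a 30 min treatment with 10 μM compound. Aliquots were heated for 3 min over 48°C-58°C and pooled before NP-40 was added to 0.5% at 4°C. The supernatant from 21,000xg for 90 min was quantified by TMTpro 16plex LC-MS/MS with channel sums equalised. Values are reported from duplicates as log-two fold change in thermal stability relative to solvent controls.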

[1] = compound: CCCS(=O)(=O)Nc1ccc(F)c(C(=O)c2c[nH]c3ncc(Cl)cc23)c1F
Outline: as §1

barasertib = compound: CCN(CCCOc1ccc2c(Nc3cc(CC(=O)Nc4cccc(F)c4)[nH]n3)ncnc2c1)CCOP(=O)(O)O [barasertib]
Outline: as §1

[2] = compound: CC[C@@H]1C(=O)N(C)c2cnc(Nc3ccc(C(=O)NC4CCN(C)CC4)cc3OC)nc2N1C1CCCC1
Outline: as §1

volasertib = compound: CC[C@@H]1C(=O)N(C)c2cnc(Nc3ccc(C(=O)N[C@H]4CC[C@H](N5CCN(CC6CC6)CC5)CC4)cc3OC)nc2N1C(C)C [volasertib]
Outline: as §1

[3] = compound: CCn1c(C(=O)N(C2CC2)C2CC2)cc2c3c(ncn3C)c(Nc3cc(C)n(C)n3)nc21
Outline: as §1

[4] = compound: CCn1cc(-c2ccnc3[nH]c(-c4cccc(CN(C)C)c4)cc23)c(-c2ccc(NC(=O)N(C)C)cc2)n1
Outline: as §1

[5] = compound: CN1CCC(CNc2ccc3ncc(-c4cccc(OC(F)(F)F)c4)n3n2)CC1
Outline: as §1

saracatinib = compound: CN1CCN(CCOc2cc(OC3CCOCC3)c3c(Nc4c(Cl)ccc5c4OCO5)ncnc3c2)CC1 [saracatinib]
Outline: as §1

sotrastaurin = compound: CN1CCN(c2nc(C3=C(c4c[nH]c5ccccc45)C(=O)NC3=O)c3ccccc3n2)CC1 [sotrastaurin]
Outline: as §1

Target | log2 fold change (vemurafenib) | log2 fold change [1] | log2 fold change (barasertib) | log2 fold change [2] | log2 fold change (volasertib) | log2 fold change [3] | log2 fold change [4] | log2 fold change [5] | log2 fold change (saracatinib) | log2 fold change (sotrastaurin)
NEK9 (UniProt Q8TD19) | inactive: -0.001 | inactive: 0.054 | inactive: -0.008 | inactive: 0.004 | inactive: -0.01 | inactive: 0.004 | inactive: -0.046 | inactive: 0.048 | inactive: 0.035 | inactive: -0.016
NLRC3 isoform 2 (UniProt Q7RTR2) | inactive: -0.044 | inactive: 0.06 | inactive: 0.088 | inactive: -0.12 | inactive: 0.034 | inactive: -0.06 |  |  | inactive: -0.02 | inactive: 0.026
NFYA (UniProt P23511) | inactive: 0.047 | inactive: 0.007 | inactive: 0.023 | inactive: 0.088 | inactive: 0.057 | inactive: -0.037 | inactive: -0.07 | inactive: 0.004 | inactive: -0.026 | inactive: 0.02
NEDD8 (UniProt Q15843) | inactive: 0.063 | inactive: 0.019 | inactive: 0.113 | inactive: -0.003 | inactive: 0.045 | inactive: 0.041 | inactive: 0.025 | inactive: -0.107 | inactive: 0.02 | inactive: 0
NFATC2IP (UniProt Q8NCF5) | inactive: -0.024 | inactive: 0.069 | inactive: 0.041 | inactive: 0.033 | inactive: 0.006 | inactive: 0 | inactive: 0.076 | inactive: -0.031 | inactive: 0.003 | inactive: -0.004
NECTIN2 (UniProt Q92692) | inactive: 0.029 | inactive: -0.028 | inactive: 0.009 | inactive: 0.001 | inactive: 0.027 | inactive: 0.038 | inactive: 0 | inactive: 0.029 | inactive: 0.014 | inactive: 0.019
NDUFV2 (UniProt P19404) | inactive: -0.015 | inactive: -0.001 | inactive: 0.105 | inactive: 0.06 | inactive: 0.017 | inactive: -0.031 | inactive: -0.042 | inactive: -0.031 | inactive: -0.011 | inactive: 0.01
NIBAN2 (UniProt Q96TA1) | inactive: -0.028 | inactive: -0.001 | inactive: 0.036 | inactive: 0.013 | inactive: -0.01 | inactive: 0.046 | inactive: 0.074 | inactive: 0 | inactive: 0.001 | inactive: 0.005
NDRG3 (UniProt Q9UGV2) | inactive: -0.006 | inactive: 0.005 | inactive: 0.011 | inactive: 0.003 | inactive: 0.011 | inactive: 0.006 | inactive: 0.049 | inactive: -0.052 | inactive: -0.024 | inactive: 0.003
NFATC3 (UniProt Q12968) | inactive: -0.008 | inactive: 0.014 | inactive: -0.02 | inactive: -0.069 | inactive: 0.006 | inactive: 0.042 | inactive: -0.024 | inactive: -0.012 | inactive: 0.065 | inactive: 0
NFKB2 (UniProt Q00653) | inactive: 0.008 | inactive: -0.003 | inactive: -0.005 | inactive: -0.01 | inactive: -0.029 | inactive: 0.054 | inactive: -0.033 | inactive: -0.008 | inactive: 0.056 | inactive: -0.027
NIPBL (UniProt Q6KC79) | inactive: -0.015 | inactive: 0.091 | inactive: 0.017 | inactive: -0.081 | inactive: -0.048 | inactive: 0.04 | inactive: -0.004 | inactive: -0.042 | inactive: -0.001 | inactive: 0.004
NDUFA9 (UniProt Q16795) | inactive: 0 | inactive: 0.083 | inactive: 0.03 | inactive: -0.012 | inactive: 0.041 | inactive: 0.036 | inactive: 0.032 | inactive: -0.216 | inactive: -0.022 | inactive: 0.095
NDST2 (UniProt P52849) | inactive: 0.144 | inactive: 0.175 | inactive: -0.059 | inactive: -0.416 | inactive: -0.144 | inactive: 0.183 | inactive: -0.096 | inactive: 0.047 | inactive: -0.088 | inactive: -0.087
NFXL1 (UniProt Q6ZNB6) | inactive: 0.015 | inactive: -0.007 | inactive: -0.108 | inactive: 0.064 | inactive: -0.076 | inactive: -0.029 | inactive: -0.008 | inactive: 0.132 | inactive: -0.04 | inactive: -0.145
NDUFS7 (UniProt O75251) | inactive: -0.035 | inactive: -0.005 | inactive: 0.054 | inactive: -0.039 | inactive: 0.009 | inactive: 0.061 | inactive: -0.043 | inactive: -0.069 | inactive: -0.017 | inactive: 0.043
NDUFS4 (UniProt O43181) | inactive: 0.029 | inactive: 0.025 | inactive: 0.009 | inactive: 0.078 | inactive: -0.002 | inactive: -0.026 | inactive: -0.034 | inactive: -0.006 | inactive: 0.02 | inactive: 0.056
NEU3 isoform 2 (UniProt Q9UQ49) | inactive: 0.115 | inactive: 0.067 | inactive: 0.134 | inactive: -0.063 | inactive: -0.038 | inactive: 0.034 |  |  | inactive: -0.139 | inactive: 0.111
NDUFA4 (UniProt O00483) | inactive: -0.009 | inactive: 0.245 | inactive: 0.058 | inactive: 0.011 | inactive: 0.122 | inactive: 0.085 | inactive: 0.067 | inactive: -0.134 | inactive: 0.018 | inactive: -0.063
NENF (UniProt Q9UMX5) | inactive: -0.017 | inactive: -0.018 | inactive: 0.183 | inactive: 0.024 | inactive: 0.039 | inactive: -0.034 | inactive: 0.048 | inactive: -0.048 | inactive: 0.027 | inactive: 0.015
NFAT5 isoform 5 (UniProt O94916) | inactive: 0.019 | inactive: -0.007 | inactive: -0.041 | inactive: 0.043 | inactive: -0.016 | inactive: 0.042 | inactive: -0.003 | inactive: 0.044 | inactive: 0.038 | inactive: 0.044
NKIRAS2 (UniProt Q9NYR9) | inactive: 0.011 | inactive: -0.039 | inactive: -0.019 | inactive: -0.019 | inactive: -0.072 | inactive: -0.013 | inactive: 0.006 | inactive: -0.012 | inactive: 0.001 | inactive: 0.014
NIT2 (UniProt Q9NQR4) | inactive: -0.003 | inactive: 0.005 | inactive: -0.008 | inactive: 0.005 | inactive: -0.004 | inactive: -0.004 | inactive: 0.02 | inactive: -0.013 | inactive: -0.008 | inactive: -0.012
NFKBIB (UniProt Q15653) | inactive: -0.058 | inactive: 0.041 | inactive: -0.059 | inactive: 0.099 | inactive: 0.068 | inactive: -0.054 | active: -0.535 | inactive: 0.096 | inactive: -0.013 | inactive: -0.002
NLRP2 (UniProt Q9NX02) | inactive: -0.011 | inactive: -0.003 | inactive: -0.04 | inactive: -0.048 | inactive: -0.067 | inactive: 0.041 | inactive: 0.031 | inactive: -0.05 | inactive: -0.012 | inactive: -0.017
NIPSNAP2 (UniProt O75323) | inactive: 0.079 | inactive: 0.086 | inactive: 0.018 | inactive: -0.018 | inactive: -0.023 | inactive: -0.034 | inactive: -0.015 | inactive: -0.181 | inactive: 0.007 | inactive: -0.015
NDUFAF1 (UniProt Q9Y375) | inactive: -0.004 | inactive: 0.041 | inactive: -0.003 | inactive: 0.072 | inactive: 0.009 | inactive: -0.007 | inactive: -0.083 | inactive: 0.014 | inactive: -0.008 | inactive: 0.039
NIPSNAP3B (UniProt Q9BS92) | inactive: 0.098 | inactive: 0.056 | inactive: -0.129 | inactive: -0.063 | inactive: -0.021 | inactive: 0.045 | inactive: -0.12 | inactive: 0.031 |  | inactive: -0.1
NDUFA2 (UniProt O43678) | inactive: 0.059 | inactive: -0.024 | inactive: 0.094 | inactive: 0.048 | inactive: 0.017 | inactive: -0.003 | inactive: -0.052 | inactive: -0.013 | inactive: 0.052 | inactive: -0.046
NDRG1 (UniProt Q92597) | inactive: 0.147 | inactive: 0.048 | inactive: 0.105 |  | inactive: -0.05 | inactive: -0.142 | inactive: -0.018 | inactive: -0.179 | inactive: 0 | inactive: 0.014

In another format: entries from further up.

| Target | log2 fold change (vemurafenib) | log2 fold change [1] | log2 fold change (barasertib) | log2 fold change [2] | log2 fold change (volasertib) | log2 fold change [3] | log2 fold change [4] | log2 fold change [5] | log2 fold change (saracatinib) | log2 fold change (sotrastaurin) |
| --- | --- | --- | --- | --- | --- | --- | --- | --- | --- | --- |
| NFYA (UniProt P23511) | inactive: 0.047 | inactive: 0.007 | inactive: 0.023 | inactive: 0.088 | inactive: 0.057 | inactive: -0.037 | inactive: -0.07 | inactive: 0.004 | inactive: -0.026 | inactive: 0.02 |
| NIBAN2 (UniProt Q96TA1) | inactive: -0.028 | inactive: -0.001 | inactive: 0.036 | inactive: 0.013 | inactive: -0.01 | inactive: 0.046 | inactive: 0.074 | inactive: 0 | inactive: 0.001 | inactive: 0.005 |
| NLRP2 (UniProt Q9NX02) | inactive: -0.011 | inactive: -0.003 | inactive: -0.04 | inactive: -0.048 | inactive: -0.067 | inactive: 0.041 | inactive: 0.031 | inactive: -0.05 | inactive: -0.012 | inactive: -0.017 |
| NIPSNAP2 (UniProt O75323) | inactive: 0.079 | inactive: 0.086 | inactive: 0.018 | inactive: -0.018 | inactive: -0.023 | inactive: -0.034 | inactive: -0.015 | inactive: -0.181 | inactive: 0.007 | inactive: -0.015 |
| NDUFAF1 (UniProt Q9Y375) | inactive: -0.004 | inactive: 0.041 | inactive: -0.003 | inactive: 0.072 | inactive: 0.009 | inactive: -0.007 | inactive: -0.083 | inactive: 0.014 | inactive: -0.008 | inactive: 0.039 |
